According to US20220315634A1, “TGF-BETA VACCINE” (IO BIOTECH APS, priority 2019, published 2022):
Not every detail of the peptide structures is certain; ends, links or a residue may be inferred. No end group written: not given here.

What was measured:
[1] = tested on: PBMCs from cancer patients; assay: In vitro IFNγ ELISPOT assay, PBMCs from cancer patients; format: cell-based, human
Procedure: (§1) For in vitro ELISPOT, PBMCs from cancer patients and healthy donors were pulsed with 20 μM of TGFβ-derived peptides (or with no peptide as a control) and 120 U/ml IL-2 in 24-well plates for 7-10 days before being used in an ELISPOT assay. The cells were placed in 96-well nitrocellulose ELISPOT plates (MultiScreen IP Filter Plate, MSIPN4W50; Millipore) pre-coated with IFNγ capture antibody (Mabtech). TGFβ peptides are added to a final concentration of 5 μM, control stimulation (DMSO, HIV or scrambled peptide) added to control wells and plates are incubated at 37° C. for 16-20 hours. After the incubation the cells were washed off and secondary biotinylated Ab (Mabtech, cat. 3420-6-1000) was added for 2 hours at room temperature. Unbound secondary antibody was washed off and streptavidin conjugated alkaline phosphatase (AP) (Mabtech, cat. 3310-10) was added for 1 hour at room temperature. Unbound conjugated enzyme was washed off and the assay was developed by adding BCIP/NBT substrate (Mabtech, cat. 3650-10). Developed ELISPOT plates were analysed on CTL ImmunoSpot S6 Ultimate-V analyzer using Immunospot software v5.1. Responses were reported as the difference between average numbers of spots in wells stimulated with TGFβ peptide and wells without added peptide. […]

[2] = tested on: PBMCs from healthy donors; assay: In vitro IFNγ ELISPOT assay, PBMCs from healthy donors; format: cell-based, human; settings: additional healthy subjects
Procedure: as §1, with “v5.1.” for “v5.1. Responses were reported as the difference between average numbers of spots in wells stimulated with TGFβ peptide and wells without added peptide.”
Peptide-specific immune responses in PBMCs from six healthy donors were assessed for spontaneous immune responses against the array of 20 mer peptides using in vitro IFNγ ELISPOT assay, set up in triplicate wells. […]

[3] = tested on: CD4+ and CD8+ T cells; assay: Intracellular cytokine staining (ICS) / FACS of peptide-stimulated T cells; format: cell-based; settings: enriched and expanded bulk cultures
Procedure: Intracellular staining of cell cultures was performed after PBMCs were stimulated with TGFβ-derived peptides (or incubated with no peptide as a control) for 5 hours in the presence of BD GolgiPlug™ (added after the first hour of peptide stimulation). CD107a-PE (cat. 555801, BD Biosciences) antibody is added in the beginning of the incubation. Stimulated cells were stained with fluorescently labelled antibodies for surface markers (CD3, CD4, CD8) and thereafter permeabilised by using a mixture of Fixation/Permeabilization concentrate and diluent (eBioscience, cat. 00-5123-43 and 00-5223-56), according to manufacturer's instructions. Permeabilised cells were then stained with fluorochrome-labelled antibodies for IFNγ and TNFα. Flow cytometry analysis was performed on a FACSCanto™ II (BD Biosciences). […] Donor PBMCs were analyzed for HLA-A2 by staining with anti-HLA-A2-FITC (BD Biosciences, San Jose, CA, USA) with an appropriate isotype control. […]
Intracellular Cytokine Staining (ICS) analysis was carried to further characterise the functionality of T cells responding to TGFb1 epitopes. […] The expression of cytokine expression (IFNγ and TNFα) as well as marker for cytotoxicity (CD107a) were quantified. […]

Sequence: LLLPLLWLLVLTPGRPAAGL [TGFb-02]
- immunogenicity by IFNγ ELISPOT in cancer patients [1]: highly immunogenic
- IFNγ ELISPOT responses, validation [2]: strong and frequent responses
- CD4+ and CD8+ T-cell responses after MACS CD137 enrichment of specific cells [3]: variable reactivity
